Assay results: patent US20110178107A1, “HCV PROTEASE INHIBITORS” (TaiGen Biotechnology Co., Ltd., priority 2010, published 2011)
Some of these results come from one statement about several compounds together.

Target: T1, NS3/4A protease (Hepatitis C virus genotype 1a, UniProt P27958)
T1 construct: N-terminal His6-tagged-NS4A(21-32)-GSGS-NS3(3-181); made in house; host or cells: E. coli BL21(DE3) pLysS
Experiment: Inhibition of NS3/4A protease activity (HPLC microbore assay)
Format: biochemical, HCV
Conditions: 2 nM NS3/4A protease, 30 minutes at 30° C; call rule not given here.

| SMILES | inhibiting NS3/4A activity |
| --- | --- |
| C=C[C@@H]1C[C@]1(NC(=O)[C@@H]1C[C@@H](Oc2nc(-c3ccc(C(F)(F)F)cc3)nc3c2oc2ccccc23)CN1C(=O)[C@@H](Nc1nc(C)cs1)C(C)(C)C)C(=O)NS(=O)(=O)C1CC1 [Compound 16] | active |
| CC(C)Oc1ccc(-c2cc(O[C@@H]3C[C@H]4C(=O)N[C@]5(C(=O)NS(=O)(=O)C6CC6)C[C@H]5/C=C\CCCCC[C@H](NC(=O)OC5CCCC5)C(=O)N4C3)n3nc4ccccc4c3n2)cc1 [Compound 236] | active |
| O=C(N[C@H]1CCCCC/C=C\[C@@H]2C[C@@]2(C(=O)NS(=O)(=O)C2CC2)NC(=O)[C@@H]2C[C@@H](Oc3cc(-c4ccccn4)nc4c5ccccc5nn34)CN2C1=O)OC1CCCC1 [Compound 270] | active |
| C=C[C@@H]1C[C@]1(NC(=O)[C@@H]1C[C@@H](Oc2nc(-c3ccc(C(F)(F)F)cc3)nc3c2oc2ccccc23)CN1C(=O)[C@@H](NC1=NC(=O)CS1)C(C)(C)C)C(=O)NS(=O)(=O)C1CC1 [Compound 11] | active |
| CC[C@@H]1C[C@]1(NC(=O)[C@@H]1C[C@@H](Oc2nc(-c3ccc(C(F)(F)F)cc3)nc3c2oc2ccccc23)CN1C(=O)[C@@H](Nc1cc(F)ccc1F)C(C)(C)C)C(=O)NS(=O)(=O)C1CC1 [Compound 38] | active |
| O=C1N[C@]2(C(=O)NS(=O)(=O)C3CC3)C[C@H]2/C=C\CCCCC[C@H](Nc2ccc(F)cc2)C(=O)N2C[C@H](Oc3nc(-c4ccc(C(F)(F)F)cc4)nc4c3oc3ccccc34)C[C@@H]12 [Compound 199] | active |
| C=C[C@@H]1C[C@]1(NC(=O)[C@@H]1C[C@@H](Oc2nc(-c3ccc(OC(C)C)cc3)nc3c2oc2ccc(F)cc23)CN1C(=O)[C@@H](Nc1ccc(F)cc1)C(C)(C)C)C(=O)NS(=O)(=O)C1CC1 [Compound 144] | active |
| C=C[C@@H]1C[C@]1(NC(=O)[C@@H]1C[C@@H](Oc2nc(-c3ccc(OC)cc3)nc3c2oc2ccccc23)CN1C(=O)[C@@H](Nc1ccc(F)cc1)C(C)(C)C)C(=O)NS(=O)(=O)C1CC1 [Compound 173] | active |
| C=CCCCCC[C@H](Nc1ccc(C#N)cc1)C(=O)N1C[C@H](Oc2nc(-c3ccc(C(F)(F)F)cc3)nc3c2oc2ccccc23)C[C@H]1C(=O)N[C@]1(C(=O)NS(=O)(=O)C2CC2)C[C@H]1C=C [Compound 77] | active |
| C=C[C@@H]1C[C@]1(NC(=O)[C@@H]1C[C@@H](Oc2nc(-c3ccc(C(F)(F)F)cc3)nc3c2oc2ccccc23)CN1C(=O)[C@@H](Nc1nc(C)c(C(=O)OCC)s1)C(C)(C)C)C(=O)NS(=O)(=O)C1CC1 [Compound 115] | active |
| CC(C)(C)c1ccc(-c2cc(O[C@@H]3C[C@H]4C(=O)N[C@]5(C(=O)NS(=O)(=O)C6CC6)C[C@H]5/C=C\CCCCC[C@H](NC(=O)OC5CCCC5)C(=O)N4C3)n3nc4ccccc4c3n2)cc1 [Compound 235] | active |
| C=C[C@@H]1C[C@]1(NC(=O)[C@@H]1C[C@@H](Oc2nc(-c3ccc(OC(C)C)cc3)nc3c2sc2ccc(F)cc23)CN1C(=O)[C@@H](Nc1nc(C)c(C(=O)OC)s1)C(C)(C)C)C(=O)NS(=O)(=O)C1CC1 [Compound 157] | active |
| O=C1CSC(N[C@H]2CCCCC/C=C\[C@@H]3C[C@@]3(C(=O)NS(=O)(=O)C3CC3)NC(=O)[C@@H]3C[C@@H](Oc4nc(-c5ccc(C(F)(F)F)cc5)nc5c4oc4ccccc45)CN3C2=O)=N1 [Compound 188] | active |
| COc1ccc(-c2cc(O[C@@H]3C[C@H]4C(=O)N[C@]5(C(=O)NS(=O)(=O)C6CC6)C[C@H]5/C=C\CCCCC[C@H](NC(=O)OC5CCCC5)C(=O)N4C3)n3nc4ccccc4c3n2)cc1 [Compound 229] | active |
| C=C[C@@H]1C[C@]1(NC(=O)[C@@H]1C[C@@H](Oc2nc(-c3ccc(OC(C)C)cc3)nc3c2oc2ccccc23)CN1C(=O)[C@@H](Nc1nc(C)c(C(=O)N(C)C)s1)C(C)(C)C)C(=O)NS(=O)(=O)C1CC1 [Compound 136] | active |
| Cc1nc(N[C@H]2CCCCC/C=C\[C@@H]3C[C@@]3(C(=O)NS(=O)(=O)C3CC3)NC(=O)[C@@H]3C[C@@H](Oc4nc(-c5ccc(OC(C)C)cc5)nc5c4oc4ccc(F)cc45)CN3C2=O)sc1C [Compound 226] | active |
| CC(C)Oc1ccc(-c2nc(O[C@@H]3C[C@H]4C(=O)N[C@]5(C(=O)NS(=O)(=O)C6CC6)C[C@H]5/C=C\CCCCC[C@H](Nc5ccc(C#N)cc5)C(=O)N4C3)c3oc4ccccc4c3n2)cc1 [Compound 218] | active |
| C=C[C@@H]1C[C@]1(NC(=O)[C@@H]1C[C@@H](Oc2nc(-c3ccc(OC(C)C)cc3)nc3c2oc2ccccc23)CN1C(=O)[C@@H](Nc1cccc(C(=O)NC)c1)C(C)(C)C)C(=O)NS(=O)(=O)C1CC1 [Compound 170] | active |
| C=C[C@@H]1C[C@]1(NC(=O)[C@@H]1C[C@@H](Oc2nc(-c3ccc(C(F)(F)F)cc3)nc3c2oc2ccccc23)CN1C(=O)[C@@H](Nc1cccc(NC(C)=O)c1)C(C)(C)C)C(=O)NS(=O)(=O)C1CC1 [Compound 90] | active |

| SMILES | inhibiting NS3/4A activity |
| --- | --- |
| CCNC(=O)c1ccc(N[C@H]2CCCCC/C=C\[C@@H]3C[C@@]3(C(=O)NS(=O)(=O)C3CC3)NC(=O)[C@@H]3C[C@@H](Oc4nc(-c5ccc(C(F)(F)F)cc5)nc5c4oc4ccccc45)CN3C2=O)cc1 [Compound 208] | active |
| O=C1N[C@]2(C(=O)NS(=O)(=O)C3CC3)C[C@H]2/C=C\CCCCC[C@H](Nc2nc3c(s2)CCC3)C(=O)N2C[C@H](Oc3nc(-c4ccc(C(F)(F)F)cc4)nc4c3oc3ccccc34)C[C@@H]12 [Compound 192] | active |
| C=C[C@@H]1C[C@]1(NC(=O)[C@@H]1C[C@@H](Oc2nc(-c3ccc(OC(C)C)cc3)nc3c2sc2ccc(F)cc23)CN1C(=O)[C@@H](Nc1nc(C)cs1)C(C)(C)C)C(=O)NS(=O)(=O)C1CC1 [Compound 154] | active |
| C=C[C@@H]1C[C@]1(NC(=O)[C@@H]1C[C@@H](Oc2nc(-c3ccc(OC(C)C)cc3)nc3c2oc2ccccc23)CN1C(=O)[C@@H](Nc1ccc(C(F)(F)F)cc1)C(C)(C)C)C(=O)NS(=O)(=O)C1CC1 [Compound 108] | active |
| Cc1ccc2nn3c(O[C@@H]4C[C@H]5C(=O)N[C@]6(C(=O)NS(=O)(=O)C7CC7)C[C@H]6/C=C\CCCCC[C@H](NC(=O)OC6CCCC6)C(=O)N5C4)cc(-c4ccccc4)nc3c2c1 [Compound 257] | active |
| CC[C@@H]1C[C@]1(NC(=O)[C@@H]1C[C@@H](Oc2nc(-c3ccc(C(F)(F)F)cc3)nc3c2oc2ccccc23)CN1C(=O)[C@@H](Nc1cc(C)ccc1F)C(C)(C)C)C(=O)NS(=O)(=O)C1CC1 [Compound 39] | active |
| C=C[C@@H]1C[C@]1(NC(=O)[C@@H]1C[C@@H](Oc2nc(-c3ccc(Cl)s3)nc3c2oc2ccccc23)CN1C(=O)[C@@H](Nc1nc(C)c(C(=O)OC)s1)C(C)(C)C)C(=O)NS(=O)(=O)C1CC1 [Compound 180] | active |
| C=C[C@@H]1C[C@]1(NC(=O)[C@@H]1C[C@@H](Oc2nc(-c3ccc(OC)cc3)nc3c2oc2ccccc23)CN1C(=O)[C@@H](Nc1nc(C)c(C(=O)OC)s1)C(C)(C)C)C(=O)NS(=O)(=O)C1CC1 [Compound 175] | active |
| C=C[C@@H]1C[C@]1(NC(=O)[C@@H]1C[C@@H](Oc2nc(-c3ccc(C(F)(F)F)cc3)nc3c2oc2ccccc23)CN1C(=O)[C@@H](Nc1nc(C(=O)NC(C)C)cs1)C(C)(C)C)C(=O)NS(=O)(=O)C1CC1 [Compound 56] | active |
| CC(C)Oc1ccc(-c2nc(O[C@@H]3C[C@H]4C(=O)N[C@]5(C(=O)NS(=O)(=O)C6CC6)C[C@H]5/C=C\CCCCC[C@H](Nc5ccc(C(F)(F)F)cc5)C(=O)N4C3)c3oc4ccccc4c3n2)cc1 [Compound 211] | active |
| CC(C)(C)OC(=O)N[C@H]1CCCCC/C=C\[C@@H]2C[C@@]2(C(=O)NS(=O)(=O)C2CC2)NC(=O)[C@@H]2C[C@@H](Oc3cc(C4CC4)nc4c5ccccc5nn34)CN2C1=O [Compound 295] | active |
| O=C1N[C@]2(C(=O)NS(=O)(=O)C3CC3)C[C@H]2/C=C\CCCCCCC(=O)N2C[C@H](Oc3cc(-c4ccccc4)nc4c5ccccc5nn34)C[C@@H]12 [Compound 296] | active |
| C=C[C@@H]1C[C@]1(NC(=O)[C@@H]1C[C@@H](Oc2nc(-c3ccc(C(F)(F)F)cc3)nc3c2oc2ccccc23)CN1C(=O)[C@@H](Nc1nc(C(=O)NC)cs1)C(C)(C)C)C(=O)NS(=O)(=O)C1CC1 [Compound 55] | active |
| CC(C)Oc1ccc(-c2nc(O[C@@H]3C[C@H]4C(=O)N[C@]5(C(=O)NS(=O)(=O)C6CC6)C[C@H]5/C=C\CCCCC[C@H](Nc5ccccc5)C(=O)N4C3)c3sc4ccccc4c3n2)cc1 [Compound 214] | active |
| C=C[C@@H]1C[C@]1(NC(=O)[C@@H]1C[C@@H](Oc2nc(-c3ccc(C(F)(F)F)cc3)nc3c2oc2ccccc23)CN1C(=O)[C@@H](Nc1nc(C(C)C)cs1)C(C)(C)C)C(=O)NS(=O)(=O)C1CC1 [Compound 32] | active |
| C=C[C@@H]1C[C@]1(NC(=O)[C@@H]1C[C@@H](Oc2nc(-c3ccc(C(F)(F)F)cc3)nc3c2oc2ccccc23)CN1C(=O)[C@@H](Nc1nc(C(=O)OC(C)C)cs1)C(C)(C)C)C(=O)NS(=O)(=O)C1CC1 [Compound 80] | active |
| C=C[C@@H]1C[C@]1(NC(=O)[C@@H]1C[C@@H](Oc2nc(-c3ccc(C(F)(F)F)cc3)nc3c2oc2ccccc23)CN1C(=O)[C@@H](Nc1ccc(C(=O)N(C)C)cc1)C(C)(C)C)C(=O)NS(=O)(=O)C1CC1 [Compound 85] | active |
| CC[C@@H]1C[C@]1(NC(=O)[C@@H]1C[C@@H](Oc2nc(-c3ccc(C(F)(F)F)cc3)nc3c2oc2ccccc23)CN1C(=O)[C@@H](Nc1nc(C(C)(C)C)cs1)C(C)(C)C)C(=O)NS(=O)(=O)C1CC1 [Compound 18] | active |
| C=C[C@@H]1C[C@]1(NC(=O)[C@@H]1C[C@@H](Oc2nc(-c3ccc(C(F)(F)F)cc3)nc3c2oc2ccccc23)CN1C(=O)[C@@H](Nc1cc(Cl)ccc1F)C(C)(C)C)C(=O)NS(=O)(=O)C1CC1 [Compound 43] | active |
